In PubChem BioAssay AID188 (DTP/NCI, 2004):
Shown are survivors of the treated group in tumour-free mice. Counts of survivors are from the toxicity check (mostly the fifth day) where no day follows; animals may have died later. Schedules are NCI's codes, taken here to give the interval after Q, in days (D) or hours (H), and the number of doses after X. Some entries were tested several times; the values are given in rising order.

Test system: CD2F1 mice, nontumored, toxicity/survival
Experiment: NCI In Vivo Anticancer Drug Screen. Data for tumor model Nontumored Animals (Toxicity Test) in CD2F1 (CDF1) mice
[1] = dose: 50.0 mg/kg/injection, schedule: Q01DX001 (ip), vehicle: saline
[2] = dose: 100.0 mg/kg/injection, schedule: Q01DX001 (ip), vehicle: saline
[3] = dose: 200.0 mg/kg/injection, schedule: Q01DX001 (ip), vehicle: saline
[4] = dose: 400.0 mg/kg/injection, schedule: Q01DX001 (ip), vehicle: saline

In the case of `CNNCc1ccc(C(=O)NC(N)=O)cc1`, the survivor count (dose: 8.0 mg/kg/injection, schedule: Q03HX024 (ip), vehicle: saline) is reported as 8 of 8, the survivor count (dose: 16.0 mg/kg/injection, schedule: Q01DX005 (iv), vehicle: saline) is reported as 8 of 8 and the survivor count (dose: 16.0 mg/kg/injection, schedule: Q03HX008 (ip), vehicle: saline) is reported as 8 of 8. For the same compound, the survivor count (dose: 16.0 mg/kg/injection, schedule: Q03HX016 (ip), vehicle: saline) was 8 of 8, the survivor count (dose: 16.0 mg/kg/injection, schedule: Q03HX024 (ip), vehicle: saline) was 8 of 8 and the survivor count (dose: 32.0 mg/kg/injection, schedule: Q01DX005 (iv), vehicle: saline) was 8 of 8. For the same compound, the survivor count (dose: 32.0 mg/kg/injection, schedule: Q01DX008 (ip), vehicle: saline) was 8 of 8, the survivor count (dose: 32.0 mg/kg/injection, schedule: Q03HX008 (ip), vehicle: saline) was 8 of 8 and the survivor count (dose: 32.0 mg/kg/injection, schedule: Q03HX016 (ip), vehicle: saline) was 8 of 8. For the same compound, the survivor count (dose: 32.0 mg/kg/injection, schedule: Q03HX024 (ip), vehicle: saline) was 8 of 8, the survivor count (dose: 64.0 mg/kg/injection, schedule: Q01DX005 (iv), vehicle: saline) was 8 of 8 and the survivor count (dose: 64.0 mg/kg/injection, schedule: Q01DX008 (ip), vehicle: saline) was 8 of 8. The survivor count (dose: 64.0 mg/kg/injection, schedule: Q01DX009 (oral), vehicle: saline) was 8 of 8, the survivor count (dose: 64.0 mg/kg/injection, schedule: Q03HX008 (ip), vehicle: saline) was 8 of 8 and the survivor count (dose: 64.0 mg/kg/injection, schedule: Q03HX016 (ip), vehicle: saline) was 8 of 8. For the same compound, the survivor count (dose: 64.0 mg/kg/injection, schedule: Q03HX024 (ip), vehicle: saline) was 8 of 8, the survivor count (dose: 64.0 mg/kg/injection, schedule: Q04DX003 (ip), vehicle: saline) was 8 of 8 and the survivor count (dose: 128.0 mg/kg/injection, schedule: Q01DX001 (ip), vehicle: saline) was 8 of 8. For the same compound, the survivor count (dose: 128.0 mg/kg/injection, schedule: Q01DX001 (iv), vehicle: saline) was 8 of 8, the survivor count (dose: 128.0 mg/kg/injection, schedule: Q01DX001 (oral), vehicle: saline) was 8 of 8 and the survivor count (dose: 128.0 mg/kg/injection, schedule: Q01DX005 (iv), vehicle: saline) was 8 of 8. The survivor count (dose: 128.0 mg/kg/injection, schedule: Q01DX008 (ip), vehicle: saline) was 8 of 8, the survivor count (dose: 128.0 mg/kg/injection, schedule: Q01DX009 (oral), vehicle: saline) was 7 of 8 and the survivor count (dose: 128.0 mg/kg/injection, schedule: Q03HX008 (ip), vehicle: saline) was 8 of 8. The survivor count (dose: 128.0 mg/kg/injection, schedule: Q03HX016 (ip), vehicle: saline) was 8 of 8, the survivor count (dose: 128.0 mg/kg/injection, schedule: Q04DX003 (ip), vehicle: saline) was 8 of 8 and the survivor count (dose: 128.0 mg/kg/injection, schedule: Q08DX002 (ip), vehicle: saline) was 8 of 8. The survivor count (dose: 256.0 mg/kg/injection, schedule: Q01DX001 (ip), vehicle: saline) was 8 of 8, the survivor count (dose: 256.0 mg/kg/injection, schedule: Q01DX001 (iv), vehicle: saline) was 8 of 8 and the survivor count (dose: 256.0 mg/kg/injection, schedule: Q01DX001 (oral), vehicle: saline) was 8 of 8. For the same compound, the survivor count (dose: 256.0 mg/kg/injection, schedule: Q01DX005 (iv), vehicle: saline) was 8 of 8, the survivor count (dose: 256.0 mg/kg/injection, schedule: Q01DX008 (ip), vehicle: saline) was 6 of 8 and the survivor count (dose: 256.0 mg/kg/injection, schedule: Q01DX009 (oral), vehicle: saline) was 8 of 8. For the same compound, the survivor count (dose: 256.0 mg/kg/injection, schedule: Q04DX003 (ip), vehicle: saline) was 8 of 8, the survivor count (dose: 256.0 mg/kg/injection, schedule: Q08DX002 (ip), vehicle: saline) was 8 of 8 and the survivor count (dose: 512.0 mg/kg/injection, schedule: Q01DX001 (ip), vehicle: saline) was 8 of 8. For the same compound, the survivor count (dose: 512.0 mg/kg/injection, schedule: Q01DX001 (iv), vehicle: saline) was 8 of 8, the survivor count (dose: 512.0 mg/kg/injection, schedule: Q01DX001 (oral), vehicle: saline) was 8 of 8 and the survivor count (dose: 512.0 mg/kg/injection, schedule: Q01DX008 (ip), vehicle: saline) was 3 of 8. For the same compound, the survivor count (dose: 512.0 mg/kg/injection, schedule: Q01DX009 (oral), vehicle: saline) was 7 of 8, the survivor count (dose: 512.0 mg/kg/injection, schedule: Q04DX003 (ip), vehicle: saline) was 8 of 8 and the survivor count (dose: 512.0 mg/kg/injection, schedule: Q08DX002 (ip), vehicle: saline) was 7 of 8. For the same compound, the survivor count (dose: 1024.0 mg/kg/injection, schedule: Q01DX001 (ip), vehicle: saline) was 0 of 8, the survivor count (dose: 1024.0 mg/kg/injection, schedule: Q01DX001 (iv), vehicle: saline) was 0 of 8 and the survivor count (dose: 1024.0 mg/kg/injection, schedule: Q01DX001 (oral), vehicle: saline) was 3 of 8. For the same compound, the survivor count (dose: 1024.0 mg/kg/injection, schedule: Q08DX002 (ip), vehicle: saline) was 1 of 8.
In the case of `O=[N+]([O-])c1nccn1CC(O)CO` (stereo not given), the survivor count [1] is reported as 3 of 3, the survivor count [2] is reported as 3 of 3 and the survivor count [3] is reported as 3 of 3. For the same compound, the survivor count (dose: 360.0 mg/kg/injection, schedule: Q01DX001 (ip), vehicle: saline + alcohol) was 3 of 3, the survivor count [4] was 3 of 3 and the survivor count (dose: 600.0 mg/kg/injection, schedule: Q01DX001 (ip), vehicle: saline + alcohol) was 3 of 3. The survivor count (dose: 1000.0 mg/kg/injection, schedule: Q01DX001 (ip), vehicle: saline + alcohol) was 3 of 3.
In the case of `O=c1[nH]cc(F)c(=O)[nH]1`, the survivor count (dose: 1.88 mg/kg/injection, schedule: Q04DX003 (ip), vehicle: saline) is reported as 8 of 8, the survivor count (dose: 3.75 mg/kg/injection, schedule: Q04DX003 (ip), vehicle: saline) is reported as 8 of 8 and the survivor count (dose: 5.0 mg/kg/injection, schedule: Q01DX006 (ip), vehicle: saline) is reported as 10 of 10. For the same compound, the survivor count (dose: 5.0 mg/kg/injection, schedule: Q01DX009 (ip), vehicle: saline) was 10 of 10 and 4 of 4, the survivor count (dose: 6.25 mg/kg/injection, schedule: Q01DX009 (ip), vehicle: saline) was 8 of 8 and the survivor count (dose: 7.5 mg/kg/injection, schedule: Q04DX003 (ip), vehicle: saline) was 8 of 8. The survivor count (dose: 10.0 mg/kg/injection, schedule: Q01DX006 (ip), vehicle: saline) was 10 of 10, the survivor count (dose: 10.0 mg/kg/injection, schedule: Q01DX009 (ip), vehicle: saline) was 10 of 10 and 4 of 4 and the survivor count (dose: 12.5 mg/kg/injection, schedule: Q01DX006 (ip), vehicle: saline) was 8 of 8. The survivor count (dose: 12.5 mg/kg/injection, schedule: Q01DX009 (ip), vehicle: saline) was 8 of 8, the survivor count (dose: 12.5 mg/kg/injection, schedule: Q02DX005 (ip), vehicle: saline) was 8 of 8 and the survivor count (dose: 13.2 mg/kg/injection, schedule: Q01DX009 (ip), vehicle: saline) was 6 of 6 and 8 of 8. For the same compound, the survivor count (dose: 13.3 mg/kg/injection, schedule: Q01DX009 (ip), vehicle: saline) was 10 of 10, the survivor count (dose: 15.0 mg/kg/injection, schedule: Q01DX009 (ip), vehicle: saline) was 10 of 10 and the survivor count (dose: 15.0 mg/kg/injection, schedule: Q04DX003 (ip), vehicle: saline) was 4 of 4 and 8 of 8. For the same compound, the survivor count (dose: 17.8 mg/kg/injection, schedule: Q04DX003 (ip), vehicle: saline) was 5 of 5, the survivor count (dose: 20.0 mg/kg/injection, schedule: Q01DX006 (ip), vehicle: saline) was 10 of 10 and the survivor count (dose: 20.0 mg/kg/injection, schedule: Q01DX009 (ip), vehicle: saline) was 10 of 10, 4 of 4, 6 of 6, 8 of 8. The survivor count (dose: 25.0 mg/kg/injection, schedule: Q01DX006 (ip), vehicle: saline) was 8 of 8, the survivor count (dose: 25.0 mg/kg/injection, schedule: Q01DX009 (ip), vehicle: saline) was 10 of 10 and 8 of 8 and the survivor count (dose: 25.0 mg/kg/injection, schedule: Q02DX005 (ip), vehicle: saline) was 8 of 8. For the same compound, the survivor count (dose: 25.0 mg/kg/injection, schedule: Q04DX003 (ip), vehicle: saline) was 8 of 8, the survivor count (dose: 26.7 mg/kg/injection, schedule: Q04DX003 (ip), vehicle: saline) was 5 of 5 and the survivor count (dose: 27.0 mg/kg/injection, schedule: Q01DX009 (ip), vehicle: saline) was 6 of 6 and 8 of 8. The survivor count (dose: 29.6 mg/kg/injection, schedule: Q04DX003 (ip), vehicle: saline) was 5 of 5, the survivor count (dose: 30.0 mg/kg/injection, schedule: Q01DX009 (ip), vehicle: saline) was 9 of 10 and 10 of 10 and the survivor count (dose: 30.0 mg/kg/injection, schedule: Q04DX003 (ip), vehicle: saline) was 4 of 4 and 8 of 8. For the same compound, the survivor count (dose: 40.0 mg/kg/injection, schedule: Q01DX006 (ip), vehicle: saline) was 10 of 10, the survivor count (dose: 40.0 mg/kg/injection, schedule: Q01DX009 (ip), vehicle: saline) was 4 of 4 and the survivor count (dose: 40.0 mg/kg/injection, schedule: Q04DX003 (ip), vehicle: saline) was 4 of 4, 5 of 5, 8 of 8. The survivor count (dose: 44.4 mg/kg/injection, schedule: Q04DX003 (ip), vehicle: saline) was 5 of 5, the survivor count [1] was 8 of 8 and the survivor count (dose: 50.0 mg/kg/injection, schedule: Q01DX006 (ip), vehicle: saline) was 8 of 8. The survivor count (dose: 50.0 mg/kg/injection, schedule: Q01DX009 (ip), vehicle: saline) was 8 of 8, the survivor count (dose: 50.0 mg/kg/injection, schedule: Q02DX005 (ip), vehicle: saline) was 8 of 8 and the survivor count (dose: 50.0 mg/kg/injection, schedule: Q04DX003 (ip), vehicle: saline) was 8 of 8. For the same compound, the survivor count (dose: 60.0 mg/kg/injection, schedule: Q04DX003 (ip), vehicle: saline) was 4 of 4, 5 of 5, 8 of 8, the survivor count (dose: 67.0 mg/kg/injection, schedule: Q04DX003 (ip), vehicle: saline) was 5 of 5 and the survivor count (dose: 80.0 mg/kg/injection, schedule: Q04DX003 (ip), vehicle: saline) was 4 of 4 and 8 of 8. For the same compound, the survivor count (dose: 90.0 mg/kg/injection, schedule: Q04DX003 (ip), vehicle: saline) was 4 of 4 and 5 of 5, the survivor count [2] was 8 of 8 and the survivor count (dose: 100.0 mg/kg/injection, schedule: Q01DX006 (ip), vehicle: saline) was 8 of 8. The survivor count (dose: 100.0 mg/kg/injection, schedule: Q02DX005 (ip), vehicle: saline) was 8 of 8, the survivor count (dose: 100.0 mg/kg/injection, schedule: Q04DX003 (ip), vehicle: saline) was 5 of 5 and 8 of 8 and the survivor count (dose: 120.0 mg/kg/injection, schedule: Q04DX003 (ip), vehicle: saline) was 4 of 4 and 8 of 8. The survivor count (dose: 150.0 mg/kg/injection, schedule: Q01DX001 (ip), vehicle: saline) was 10 of 10, the survivor count (dose: 150.0 mg/kg/injection, schedule: Q04DX003 (ip), vehicle: saline) was 5 of 5 and the survivor count (dose: 175.0 mg/kg/injection, schedule: Q01DX001 (ip), vehicle: saline) was 10 of 10. For the same compound, the survivor count [3] was 10 of 10 and 8 of 8, the survivor count (dose: 200.0 mg/kg/injection, schedule: Q04DX003 (ip), vehicle: saline) was 8 of 8 and the survivor count (dose: 225.0 mg/kg/injection, schedule: Q01DX001 (ip), vehicle: saline) was 10 of 10 and 9 of 9. The survivor count [4] was 8 of 8.
